Laboratory results: the supplement of paper PMC4604168 (melanoma cell lines)
This is one part of the list. Many values rest on one well or one pass, so single values are uncertain.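 Cells were imaged in 1,536-well plates, and nuclei stained with an antibody against cleaved PARP were counted against all DNA-stained nuclei to give the apoptosis fraction. Screening doses were chosen to leave most cells alive, and resting and induced cleaved-PARP levels differ strongly between cell lines.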

Tests used:
Experiment in all cases: cleaved PARP positive nuclei fraction relative to DMSO control; melanoma cells; higher = more apoptosis
Settings in all cases: library dose: low library concentration; 72 h
[1] = tested on: 501Mel
[2] = tested on: A101D
[3] = tested on: A2058
[4] = tested on: C32
[5] = tested on: CBRC008 (line from a melanoma biopsy)
[6] = tested on: CBRC014 (line from a melanoma biopsy)
[7] = tested on: CBRC016 (line from a melanoma biopsy)
[8] = tested on: CBRC017 (line from a melanoma biopsy)
[9] = tested on: COLO792
[10] = tested on: COLO800
[11] = tested on: COLO829
[12] = tested on: G361
[13] = tested on: IPC-298
[14] = tested on: IST-MEL1
[15] = tested on: LB2518-MEL
[16] = tested on: LOXIMVI

Compound	cleaved PARP positive nuclei fraction [1]	cleaved PARP positive nuclei fraction [2]	cleaved PARP positive nuclei fraction [3]	cleaved PARP positive nuclei fraction [4]	cleaved PARP positive nuclei fraction [5]	cleaved PARP positive nuclei fraction [6]	cleaved PARP positive nuclei fraction [7]	cleaved PARP positive nuclei fraction [8]	cleaved PARP positive nuclei fraction [9]	cleaved PARP positive nuclei fraction [10]	cleaved PARP positive nuclei fraction [11]	cleaved PARP positive nuclei fraction [12]	cleaved PARP positive nuclei fraction [13]	cleaved PARP positive nuclei fraction [14]	cleaved PARP positive nuclei fraction [15]	cleaved PARP positive nuclei fraction [16]
Nc1ccn([C@@H]2O[C@H](CO)[C@@H](O)C2(F)F)c(=O)n1 [gemcitabine] + COc1ccc(COc2ccc(Cc3cnc(N)nc3N)cc2OC)cc1 [GW2580] (first compound 0.0004 µM, partner dose 1 µM)	57.5%	39.2%	65.2%	278%	92.8%	136%	95.3%	108%	112%	121%	140%	112%	87.9%	125%	209%	67%
CC(C)C[C@H](NC(=O)[C@H](Cc1ccccc1)NC(=O)c1cnccn1)B(O)O [Bortezomib] + Cc1cc([N+](=O)[O-])ccc1NS(=O)(=O)c1cc(Cl)ccc1Cl [FH535] (first compound 0.001 µM, partner dose 1 µM)	271%	131%	34.8%	104%	1140%	167%	1560%	416%	54.7%	86.9%	165%	1690%	135%	115%	154%	143%
O=C(O)[C@@H]1[O][Sb](=[O])([O][Sb]2(=[O])[O][C@H]([C@H](O)CO)[C@H](O)[C@H](C(=O)O)[O]2)[O][C@H]([C@H](O)CO)[C@@H]1O (some centres undefined) [stibogluconate] + CCN(CC)CCCCNc1ncc2cc(-c3cc(OC)cc(OC)c3)c(NC(=O)NC(C)(C)C)nc2n1 [PD173074] (first compound 2 µM, partner dose 0.1 µM)	64.3%	19.1%	369%	101%	79.7%	85.8%	39.8%	73%	47.6%	87.9%	79.6%	141%	30.8%	111%	146%	121%
O=C(O)[C@@H]1[O][Sb](=[O])([O][Sb]2(=[O])[O][C@H]([C@H](O)CO)[C@H](O)[C@H](C(=O)O)[O]2)[O][C@H]([C@H](O)CO)[C@@H]1O (some centres undefined) [stibogluconate] + CCc1ccc(CCOc2ccc(CC3SC(=O)NC3=O)cc2)nc1 [pioglitazone] (first compound 2 µM, partner dose 2 µM)	56.4%	805%	244%	74.5%	62%	78.9%	86.1%	479%	63.6%	72.9%	167%	160%	46.2%	110%	134%	61.3%
CCCS(=O)(=O)Nc1ccc(F)c(C(=O)c2c[nH]c3ncc(Cl)cc23)c1F + Cn1cc(/C=C2\C(=O)Nc3cccnc32)c2ccccc21 [GW441756] (first compound 0.08 µM, partner dose 0.4 µM)	54.6%	35.4%	47.9%	99.5%	125%	139%	58.1%	122%	92.9%	81.7%	28.7%	130%	46.6%	99.3%	195%	42.5%
Cc1cc(Nc2cc(N3CCN(C)CC3)nc(/C=C/c3ccccc3)n2)n[nH]1 + COC(=O)c1sccc1S(=O)(=O)Nc1ccc(Nc2ccccc2)cc1OC [GSK0660] (first compound 0.04 µM, partner dose 1 µM)	135%	13.5%	45.6%	42.6%	119%	120%	68.8%	99.5%	94%	70%	36.7%	344%	64.5%	84.7%	19.4%	111%
CC(C)C[C@H](NC(=O)[C@H](Cc1ccccc1)NC(=O)c1cnccn1)B(O)O [Bortezomib] + COc1cc2ncnc(Nc3ccc(Oc4ccccc4)cc3)c2cc1OC [SrcI1] (first compound 0.001 µM, partner dose 2 µM)	139%	223%	69.6%	94.7%	2460%	919%	412%	495%	59.4%	30.5%	243%	2570%	74.6%	162%	188%	71.5%
CO[C@H]1C[C@@H]2CC[C@@H](C)[C@@](O)(O2)C(=O)C(=O)N2CCCC[C@H]2C(=O)O[C@H]([C@H](C)C[C@@H]2CC[C@@H](OCCO)[C@H](OC)C2)CC(=O)[C@H](C)/C=C(\C)[C@@H](O)[C@@H](OC)C(=O)[C@H](C)C[C@H](C)/C=C/C=C/C=C/1C [everolimus] + O=C1NC(=O)/C(=C/c2ccc(-c3ccc(F)cc3O)o2)S1 [AS252424] (first compound 0.02 µM, partner dose 1 µM)	115%	87%	229%	70.2%	300%	102%	147%	112%	86.4%	172%	149%	93.7%	175%	189%	93.2%	117%
C[C@@H](Oc1cc(-c2cnn(C3CCNCC3)c2)cnc1N)c1c(Cl)ccc(F)c1Cl [Crizotinib] + O=C(O)C(=O)Nc1sc2c(c1C(=O)O)CCNC2 [TCS401] (first compound 0.2 µM, partner dose 1.66667 µM)	76.5%	14.5%	82.7%	28%	136%	91.8%	66%	210%	73.5%	25.4%	173%	136%	92.8%	69.8%	101%	28.5%
